This passage reports AC50 results from PubChem BioAssay AID662 (National Center for Advancing Translational Sciences (NCATS), 2007).

Molecules are shown by their SMILES. The list shows a part of the results. Further columns of the screen follow, without active or inactive calls. Most of these compounds were active or inconclusive in the main read-out, so they are no random draw. Potencies come from curve fits of mixed quality, noted in brackets.

This assay can be described thus: Cell signaling CRE-BLA (Fsk stim). As to conditions: CHO CRE-bla reporter (cAMP response element driving beta-lactamase), forskolin EC10, beta-lactamase ratio; measured here: 460 nm blue channel. In short, it runs like this: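 CRE-bla CHO reporter cells treated with compound titration plus EC10 NKH 477 (water-soluble forskolin), incubated 3 h at 37 °C; CCF4 loading 2 h at room temperature, 460/530 nm emission ratio read, AC50 values derived for positive or negative modulators.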
One may read the AC50 as the concentration giving half of the maximal activity seen. On to `O=C(NC1CCCCC1)N(Cc1cc2cc3c(cc2[nH]c1=O)OCCO3)CC1CCCO1` (centres undefined), for which the AC50 is 12.6 µM [rising, single point].

For `COCCn1c(SCc2csc(-c3ccccc3)n2)nc2ccccc21`, the AC50 is 2 µM [rising, full curve, poor fit].

As for `CCCc1nnc(SCC(=O)N2CCCC2)n1CC1CCCO1` (centres undefined), the AC50 is 2.51 µM [falling, full curve, poor fit].

With `Cc1ccccc1OCCCCCn1ccnc1`, the AC50 was 25.1 µM [falling, single point].

Take `OC(COc1ccc(Cl)c2ccccc12)CN1CCN(c2ccccn2)CC1` (centres undefined): the AC50 is 0.01 µM [falling, full curve].

Regarding `O=C(CC1(O)C(=O)Nc2ccccc21)c1ccc(-n2cccc2)cc1` (centres undefined), the AC50 was 0.316 µM [rising, full curve].

Take `CCN(Cc1cc2cc(C)ccc2[nH]c1=O)C(=O)c1cccc(OC)c1`: the AC50 is 1 µM [falling, partial curve].

With `CN1CCN(S(=O)(=O)c2ccc(NC(=O)C3CCCO3)cc2)CC1` (centres undefined), the AC50 is 12.6 µM [falling, partial curve, poor fit].

`O=C(NCc1ccccn1)C1CCN(S(=O)(=O)c2cccs2)CC1`: the AC50 is 0.158 µM [falling, full curve].

Take `COc1ccc(OC)c(NC(=O)CSc2nnc(-c3ccco3)n2-c2ccccc2)c1`: the AC50 is 2.51 µM [rising, full curve].

On to `CCOC(=O)C(NC(=O)CCC(=O)Nc1ccc(S(N)(=O)=O)cc1)C(O)c1ccccc1` (centres undefined), for which the AC50 is 0.398 µM [rising, full curve].

For the compound `O=C(CN1CCCCC1)Nc1nnc(-c2ccccc2)s1`, the AC50 was 2.51 µM [falling, partial curve, poor fit].

Take `NC(=O)c1cc2ccc(O)cc2oc1=NCc1ccccc1`: the AC50 was 10 µM [rising, partial curve].

Take `CCOCCCN1C(=O)CN(C2CCCCCC2)C(=O)C1c1ccc(OC)cc1` (centres undefined): the AC50 is 0.398 µM [rising, full curve].

As to `CC(C)CCn1c(SCC#N)nc2c(sc3ccccc32)c1=O`, the AC50 was 7.94 µM [rising, partial curve].

For `CC(C)C[C@H](NC(=O)N1CCN(c2ccccc2)CC1)C(=O)O`, the AC50 was 3.16 µM [falling, partial curve, poor fit].

For `C=CCn1c(SCc2csc(C)n2)nc2sc3c(c2c1=O)CCCCC3`, the half-maximal activity concentration (AC50) was 2 µM [rising, full curve, poor fit].

Regarding `C=CCOC(=O)C(C#N)c1nc2ccccc2nc1N1CCN(Cc2ccccc2)CC1` (centres undefined), the AC50 was 10 µM [rising, partial curve].

For the compound `O=C1CN(C(=O)CN2CCCC2)C(c2ccccc2)c2cc(Br)ccc2N1` (centres undefined), the AC50 is 25.1 µM [falling, single point].

For the compound `CCc1nc2sc(C)c(C)c2c(=O)n1CCO`, the AC50 is 12.6 µM [rising, single point].

Consider `O=C(CSc1n[nH]c(-c2ccncc2)n1)NC1CCS(=O)(=O)C1` (centres undefined), for which the AC50 is 2.51 µM [falling, partial curve, poor fit].

Take `O=c1c2ccccc2nnn1CSc1nc2cc(Cl)ccc2c(=O)n1Cc1ccco1`: the AC50 is 1.26 µM [falling, partial curve].

Take `COC(=O)C1CCN(C(=O)c2ccc(NC(C)=O)cc2)CC1`: the AC50 is 0.316 µM [rising, partial curve].

As to `Clc1ccccc1Cn1nnc2c(N3CCCC3)ncnc21`, the AC50 is 10 µM [rising, partial curve].

Consider `Cn1nnnc1SCc1ccc(C(=O)Nc2nccs2)cc1`, for which the AC50 is 10 µM [rising, single point].

Consider `COc1ccc(N2CCN(Cc3nc4c(c(=O)n(C)c(=O)n4C)n3CCc3ccccc3)CC2)cc1`, for which the AC50 was 12.6 µM [rising, single point].

With `COc1nc(-c2ccccc2)cc(-c2ccccc2)n1`, the concentration at half-maximal activity (AC50) was 15.8 µM [rising, partial curve].

For the compound `CN(C)CC(C(=O)c1ccccc1)c1ccccc1` (centres undefined), the AC50 is 3.16 µM [falling, partial curve].

In the case of `COc1ccc(C(=O)N2CCN(Cc3ccccc3C)CC2)cc1OC`, the AC50 is 12.6 µM [falling, partial curve].

As for `Cc1ccccc1-n1nc2c(c1NC(=O)c1c(-c3ccccc3Cl)noc1C)CSC2`, the AC50 is 3.98 µM [falling, partial curve].

`CCn1c(SCC(=O)c2cc(OC)ccc2OC)nnc1-c1ccncc1`: the AC50 is 10 µM [falling, partial curve].

On to `CCOc1ccccc1OCCCCN1CCCC1`, for which the half-maximal activity concentration (AC50) is 12.6 µM [falling, partial curve].

With `CCCC(=O)Nc1cc(Cl)ccc1N1CCN(C(=O)CC)CC1`, the AC50 is 0.0794 µM [falling, full curve].

`CCOC(=O)c1cnn2c(C(F)(F)F)cc(-c3ccccc3)nc12`: the AC50 was 15.8 µM [rising, partial curve].

Consider `COc1ccc(C2=NOC(C(=O)Nc3ccc(C(C)=O)cc3)C2)cc1OC` (centres undefined), for which the AC50 was 5.01 µM [falling, partial curve].

Take `Clc1cccc(Cl)c1COc1ccncc1`: the AC50 is 5.01 µM [falling, single point].

Take `Cn1nnnc1Sc1ncnc2scc(-c3ccc(F)cc3)c12`: the AC50 was 6.31 µM [rising, partial curve].

On to `C(=N\n1cnnc1)/c1cn(Cc2ccccc2)c2ccccc12`, for which the AC50 is 10 µM [rising, single point].

For `COCCNc1ncnc2ccc(-c3c(C)noc3C)cc12`, the AC50 was 5.01 µM [rising, partial curve].

Regarding `CCCn1c(=O)c(C(=O)Nc2nnc(C)s2)c(O)c2ccccc21`, the AC50 was 12.6 µM [falling, single point].

Consider `COCCNC(=O)CN(c1ccccc1OC)S(C)(=O)=O`, for which the AC50 is 2.51 µM [falling, partial curve].

Turning to `Cc1nc(-c2ccccc2)cc(N2CCCC2)n1`, the AC50 was 0.126 µM [rising, full curve].

Regarding `CCCCc1n[nH]c2c1/C(=N/O)CC(c1ccccc1)C2` (centres undefined), the AC50 was 0.126 µM [falling, partial curve].

As to `COC(=O)Cc1c(C)c2cc(Cl)c(OC(=O)c3ccco3)cc2oc1=O`, the AC50 was 15.8 µM [rising, partial curve].

In the case of `c1ccc2nc3c(nc2c1)[nH]c1ccccc13`, the AC50 was 5.01 µM [rising, partial curve].

Turning to `O=C(Nc1ccc(S(=O)(=O)N2CCOCC2)cc1)c1ccc(Cl)s1`, the AC50 was 15.8 µM [rising, single point].

In the case of `COc1ccc(C(O)P(=O)(OC2CCCCC2)c2ccc(N(C)C)cc2)cc1OC` (centres undefined), the AC50 is 0.794 µM [falling, partial curve].

As to `Cc1ccccc1-c1nc(CN2CCC(C(=O)NCCC3=CCCCC3)CC2)c(C)o1`, the AC50 was 10 µM [falling, partial curve].

As to `COc1ccc(C)cc1NC(=O)CN1CCN(c2ccccc2F)CC1`, the AC50 is 0.2 µM [falling, full curve, poor fit].

Regarding `CCOCC(=O)Nc1nnc(Cc2ccc(OC)c(OC)c2)s1`, the AC50 was 12.6 µM [rising, single point].

As for `c1ccc2c(NC3CC3)nc(-c3ccoc3)nc2c1`, the AC50 is 3.98 µM [rising, full curve, poor fit].

For `Cn1c(=O)c(-c2cccc(Cl)c2)nc2cncnc21`, the AC50 is 10 µM [rising, partial curve].

With `COc1ccc(CCNC(=O)CN2C(=O)C3(OCCCO3)c3ccccc32)cc1OC`, the AC50 was 3.98 µM [falling, full curve].

With `Cc1c(NC(=O)CC2CC(C)OC2=O)c(=O)n(-c2ccccc2)n1C` (centres undefined), the AC50 is 1.58 µM [rising, partial curve].

Turning to `CC(C)c1nnc(NC(=O)C2CCN(c3nc4ccccc4s3)CC2)s1`, the AC50 is 5.01 µM [rising, single point].

For the compound `Cc1onc(-c2c(F)cccc2Cl)c1C(=O)Nc1nnc(C2CC2)s1`, the AC50 is 0.0251 µM [falling, full curve, poor fit].

On to `COc1ccc(-c2nc(CSCC(=O)NCc3ccc4c(c3)OCO4)c(C)o2)cc1OC`, for which the half-maximal activity concentration (AC50) is 5.01 µM [rising, partial curve].

`CCc1ccccc1-n1c(SCC(=O)Nc2ccc3c(c2)OCCO3)nc2[nH]ncc2c1=O`: the AC50 was 2 µM [rising, partial curve, poor fit].

`COc1cc(NC(=O)c2cc(-c3cccs3)on2)cc(OC)c1OC`: the AC50 was 1.26 µM [rising, partial curve].

For the compound `CCOc1ncccc1C(=O)Oc1ccc2c(c1)OCO2`, the AC50 was 3.98 µM [falling, partial curve, poor fit].

For `CCOC(=O)N1CCC(N2C(=O)c3ccccc3C2Nc2cc(Cl)c(OC)cc2OC)CC1` (centres undefined), the AC50 was 10 µM [rising, partial curve].

In the case of `CN(C)c1ccc(Nc2nc(-c3cccnc3)cs2)cc1`, the AC50 was 0.00398 µM [falling, full curve].

In the case of `C=CCn1c(SCC(=O)NCCCC)nc2scc(-c3ccco3)c2c1=O`, the AC50 is 0.251 µM [falling, full curve].

As to `CCC(=O)c1ccccc1OCCSc1nc(C)cc(=O)[nH]1`, the AC50 was 12.6 µM [rising, partial curve].

As for `COc1cc(-c2nc(S(=O)(=O)c3ccc(Cl)cc3)c(N(C)C)o2)cc(OC)c1OC`, the AC50 is 3.16 µM [rising, partial curve].

As for `COc1ccc(C(=O)Nc2nc3ccccc3[nH]2)cc1OC`, the AC50 was 6.31 µM [rising, partial curve].

`Cc1noc(C)c1-c1nc(N2CCN(C)CC2)c2ccccc2n1`: the AC50 was 12.6 µM [rising, partial curve].

For the compound `CN(c1nc2ccccc2n2c(-c3ccco3)nnc12)S(=O)(=O)c1ccccc1`, the AC50 is 31.6 µM [falling, single point].

For `O=C1CC(C(=O)Nc2ncccn2)C(c2ccccc2)O1` (centres undefined), the AC50 is 10 µM [falling, partial curve].
